Publication PMC8417031
No constants are given. Whether binding was seen depends on the method and setting. Binding seen in cells or lysates may run through a third protein. A yes stands for co-enrichment or nearness to the bait. Other partners may have been found.

Protein sequences, listed by entry. Tags and fused reporters are not part of them.
UniProt Q86W92: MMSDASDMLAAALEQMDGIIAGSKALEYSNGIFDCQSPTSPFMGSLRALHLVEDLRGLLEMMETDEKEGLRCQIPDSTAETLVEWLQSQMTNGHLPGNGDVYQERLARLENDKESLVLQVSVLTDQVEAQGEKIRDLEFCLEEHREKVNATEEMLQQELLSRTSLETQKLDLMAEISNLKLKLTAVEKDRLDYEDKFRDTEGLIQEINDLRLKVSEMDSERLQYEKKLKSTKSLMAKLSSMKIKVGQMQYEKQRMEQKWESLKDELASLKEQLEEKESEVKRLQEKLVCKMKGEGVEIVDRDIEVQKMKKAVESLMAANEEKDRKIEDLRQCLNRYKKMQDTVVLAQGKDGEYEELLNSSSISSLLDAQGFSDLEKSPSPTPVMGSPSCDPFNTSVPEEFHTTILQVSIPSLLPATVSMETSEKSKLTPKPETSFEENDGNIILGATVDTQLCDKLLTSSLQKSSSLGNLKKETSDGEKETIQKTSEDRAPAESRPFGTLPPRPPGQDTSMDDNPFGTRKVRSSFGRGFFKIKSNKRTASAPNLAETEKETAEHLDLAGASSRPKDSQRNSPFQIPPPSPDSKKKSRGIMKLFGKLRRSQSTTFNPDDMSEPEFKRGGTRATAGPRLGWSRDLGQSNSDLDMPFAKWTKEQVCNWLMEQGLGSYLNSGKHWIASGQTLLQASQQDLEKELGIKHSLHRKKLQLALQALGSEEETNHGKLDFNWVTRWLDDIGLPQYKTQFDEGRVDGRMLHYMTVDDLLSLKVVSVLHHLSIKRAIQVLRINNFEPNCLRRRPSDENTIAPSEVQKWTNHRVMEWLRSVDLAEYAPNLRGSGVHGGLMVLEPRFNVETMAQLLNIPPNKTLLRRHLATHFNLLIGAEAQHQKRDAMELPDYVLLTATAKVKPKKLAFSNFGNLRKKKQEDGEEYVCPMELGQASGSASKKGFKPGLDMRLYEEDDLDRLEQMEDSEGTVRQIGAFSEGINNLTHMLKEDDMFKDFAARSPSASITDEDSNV

Target: PPFIA binding protein 1 (PPFIBP1) (human (endogenous in U251 MG)) (UniProt Q86W92)
Test: affinity purification with mass spectrometry; Co-IP from U251 MG cell lysate with an anti-PPFIBP1 antibody, non-specific IgG as negative control; the methods name FLAG M2 beads and elution with 200 μg/ml 3×FLAG-peptide in PBS; SDS-PAGE, silver staining, in-gel trypsin digest, LC-MS/MS

binding: binds
B1: SRCIN1 (p140Cap) (protein, UniProt Q9C0H9 1-1183)
chain: MGNAPSQDPERSSPPMLSADDAEYPREYRTLGGGGGGGSGGRRFSNVGLVHTSERRHTVIAAQSLEALSGLQKADADRKRDAFMDHLKSKYPQHALALRGQQDRMREQPNYWSFKTRSSRHTQGAQPGLADQAAKLSYASAESLETMSEAELPLGFSRMNRFRQSLPLSRSASQTKLRSPGVLFLQFGEETRRVHITHEVSSLDTLHALIAHMFPQKLTMGMLKSPNTAILIKDEARNVFYELEDVRDIQDRSIIKIYRKEPLYAAFPGSHLTNGDLRREMVYASRESSPTRRLNNLSPAPHLASGSPPPGLPSGLPSGLQSGSPSRSRLSYAGGRPPSYAGSPVHHAAERLGGAPAAQGVSPSPSAILERRDVKPDEDLASKAGGMVLVKGEGLYADPYGLLHEGRLSLAAAAGDPFAYPGAGGLYKRGSVRSLSTYSAAALQSDLEDSLYKAAGGGGPLYGDGYGFRLPPSSPQKLADVAAPPGGPPPPHSPYSGPPSRGSPVRQSFRKDSGSSSVFAESPGGKTRSAGSASTAGAPPSELFPGPGERSLVGFGPPVPAKDTETRERMEAMEKQIASLTGLVQSALLRGSEPETPSEKIEGSNGAATPSAPCGSGGRSSGATPVSGPPPPSASSTPAGQPTAVSRLQMQLHLRGLQNSASDLRGQLQQLRKLQLQNQESVRALLKRTEAELSMRVSEAARRQEDPLQRQRTLVEEERLRYLNDEELITQQLNDLEKSVEKIQRDVSHNHRLVPGPELEEKALVLKQLGETLTELKAHFPGLQSKMRVVLRVEVEAVKFLKEEPQRLDGLLKRCRGVTDTLAQIRRQVDEGVWPPPNNLLSQSPKKVTAETDFNKSVDFEMPPPSPPLNLHELSGPAEGASLTPKGGNPTKGLDTPGKRSVDKAVSVEAAERDWEEKRAALTQYSAKDINRLLEETQAELLKAIPDLDCASKAHPGPAPTPDHKPPKAPHGQKAAPRTEPSGRRGSDELTVPRYRTEKPSKSPPPPPPRRSFPSSHGLTTTRTGEVVVTSKKDSAFIKKAESEELEVQKPQVKLRRAVSEVARPASTPPIMASAIKDEDDEDRIIAELESGGGSVPPMKVVTPGASRLKAAQGQAGSPDKSKHGKQRAEYMRIQAQQQATKPSKEMSGSNETSSPVSEKPSASRTSIPVLTSFGARNSSISF
